Experimental data published in patent US20080051866A1, “Drug delivery devices and methods” (priority 2003, published 2008).
For at least one compound, name, drawing or mass did not settle the structure.

What was measured:
neointimal hyperplasia [1] = test: Porcine studies with rapamycin-coated stents; format: in vivo
neointimal hyperplasia [2] = test: Sirolimus FIM, patients treated with a rapamycin-coated stent (QCA and IVUS effectiveness measures); format: in vivo, human; details: humans
[3] = system: inflammation, neointimal hyperplasia; test: Rapamycin delivered from a stent compared with dexamethasone delivered from a stent; format: in vivo; details: drug delivered from a stent
[4] = system: negative or constrictive vascular remodeling; test: Human implant studies, angiographic in-lesion percent diameter stenosis after rapamycin-coated stent; format: in vivo; details: rapamycin treated groups, even at twelve months

| SMILES | peak reduction in neointimal hyperplasia (neointimal hyperplasia [1]; porcine and rabbit models, nonerodible polymeric stent coating, 35-430 ug/15-18 mm coronary stent, maximal at about twenty-eight to thirty days) | persistence of the reduction in neointimal hyperplasia (neointimal hyperplasia [1]; porcine model, ninety to one hundred eighty days) | duration of the result on neointimal hyperplasia (neointimal hyperplasia [2]) | neointimal hyperplasia inside the stent (in words) (neointimal hyperplasia [2]; angiographic and intravascular ultrasound measurements) | Inflammation Score [3] | neointimal hyperplasia (in words) [3] | in-lesion percent diameter stenosis (in words) [4] |
| --- | --- | --- | --- | --- | --- | --- | --- |
| CO[C@H]1C[C@@H]2CC[C@@H](C)[C@@](O)(O2)C(=O)C(=O)N2CCCC[C@H]2C(=O)O[C@H]([C@H](C)C[C@@H]2CC[C@@H](O)[C@H](OC)C2)CC(=O)[C@H](C)/C=C(\C)[C@@H](O)[C@@H](OC)C(=O)[C@H](C)C[C@H](C)/C=C/C=C/C=C/1C [Rapamycin] | fifty to fifty-five | typically not sustained | sustained for at least one year | essentially total abolition of neointimal hyperplasia inside the stent | far more effective than dexamethasone in reducing inflammation scores | significantly reduces neointimal hyperplasia | remains low |
| C[C@@H]1C[C@H]2[C@@H]3CCC4=CC(=O)C=C[C@]4(C)[C@@]3(F)[C@@H](O)C[C@]2(C)[C@@]1(O)C(=O)CO [Dexamethasone] | – | – | – | – | able to reduce inflammation scores | – | – |
